Data from article PMC2813878.
These are yes or no findings as the source states them, for the method shown. Binding seen in cells or lysates may run through a third protein. Some binding calls cover weakened binding; strength is not graded here. Where a sequence is shown, tags or fusion partners need not be part of it.

Amino acid sequences for entries named in this document (tags omitted). Residues count along the entry.
UniProt Q15303, residues 26-1308: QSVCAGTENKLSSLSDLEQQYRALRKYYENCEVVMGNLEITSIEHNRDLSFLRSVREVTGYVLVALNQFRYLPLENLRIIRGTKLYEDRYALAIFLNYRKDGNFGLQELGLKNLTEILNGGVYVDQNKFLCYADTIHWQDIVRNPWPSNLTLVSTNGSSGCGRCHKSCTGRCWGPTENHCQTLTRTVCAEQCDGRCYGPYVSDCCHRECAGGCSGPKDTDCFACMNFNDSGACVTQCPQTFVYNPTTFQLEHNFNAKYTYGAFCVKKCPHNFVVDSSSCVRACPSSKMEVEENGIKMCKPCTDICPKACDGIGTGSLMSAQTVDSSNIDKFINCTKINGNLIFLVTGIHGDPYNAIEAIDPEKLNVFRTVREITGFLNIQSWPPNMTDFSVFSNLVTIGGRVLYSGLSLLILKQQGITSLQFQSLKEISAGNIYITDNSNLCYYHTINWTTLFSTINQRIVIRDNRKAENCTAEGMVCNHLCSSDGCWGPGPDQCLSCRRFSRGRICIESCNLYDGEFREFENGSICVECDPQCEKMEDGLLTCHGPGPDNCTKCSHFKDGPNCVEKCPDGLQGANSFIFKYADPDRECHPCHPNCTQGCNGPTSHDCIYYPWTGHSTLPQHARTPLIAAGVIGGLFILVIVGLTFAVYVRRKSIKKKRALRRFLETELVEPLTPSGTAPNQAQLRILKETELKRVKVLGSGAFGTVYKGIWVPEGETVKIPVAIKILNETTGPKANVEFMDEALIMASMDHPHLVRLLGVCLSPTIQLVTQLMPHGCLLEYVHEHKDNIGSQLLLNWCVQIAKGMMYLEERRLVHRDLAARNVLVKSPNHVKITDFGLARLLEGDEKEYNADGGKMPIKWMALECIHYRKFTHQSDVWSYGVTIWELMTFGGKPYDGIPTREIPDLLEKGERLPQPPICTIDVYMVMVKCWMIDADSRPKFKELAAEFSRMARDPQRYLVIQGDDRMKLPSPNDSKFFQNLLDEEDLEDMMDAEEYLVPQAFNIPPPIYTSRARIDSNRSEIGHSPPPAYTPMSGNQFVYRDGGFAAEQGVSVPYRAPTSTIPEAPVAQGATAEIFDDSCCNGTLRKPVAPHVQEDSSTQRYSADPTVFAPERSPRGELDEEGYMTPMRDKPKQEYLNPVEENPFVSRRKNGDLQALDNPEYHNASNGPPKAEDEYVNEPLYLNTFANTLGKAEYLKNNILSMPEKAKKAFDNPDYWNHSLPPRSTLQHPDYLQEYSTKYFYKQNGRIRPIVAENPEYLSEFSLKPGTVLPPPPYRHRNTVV

Columns and labels:
[1] = molecular target: T1, Lrig3-flag (mouse Lrig3, full length cDNA in pcDNA3.1+, flag tag after the signal sequence) (mouse) (UniProt Q6P1C6); test: co-IP; HEK293T cells co-transfected with an ErbB receptor and flag-tagged Lrig1 or Lrig3; lysis in 20 mM Tris pH 7.4, 150 mM NaCl, 1% TritonX-100; immunoprecipitated with agarose-conjugated anti-flag (M2) overnight at 4°C, blotted with anti-ErbB; cells in the absence or presence of ligand (200 ng/ml EGF or 1 nM NRG1, 10 min)
T1 sequence: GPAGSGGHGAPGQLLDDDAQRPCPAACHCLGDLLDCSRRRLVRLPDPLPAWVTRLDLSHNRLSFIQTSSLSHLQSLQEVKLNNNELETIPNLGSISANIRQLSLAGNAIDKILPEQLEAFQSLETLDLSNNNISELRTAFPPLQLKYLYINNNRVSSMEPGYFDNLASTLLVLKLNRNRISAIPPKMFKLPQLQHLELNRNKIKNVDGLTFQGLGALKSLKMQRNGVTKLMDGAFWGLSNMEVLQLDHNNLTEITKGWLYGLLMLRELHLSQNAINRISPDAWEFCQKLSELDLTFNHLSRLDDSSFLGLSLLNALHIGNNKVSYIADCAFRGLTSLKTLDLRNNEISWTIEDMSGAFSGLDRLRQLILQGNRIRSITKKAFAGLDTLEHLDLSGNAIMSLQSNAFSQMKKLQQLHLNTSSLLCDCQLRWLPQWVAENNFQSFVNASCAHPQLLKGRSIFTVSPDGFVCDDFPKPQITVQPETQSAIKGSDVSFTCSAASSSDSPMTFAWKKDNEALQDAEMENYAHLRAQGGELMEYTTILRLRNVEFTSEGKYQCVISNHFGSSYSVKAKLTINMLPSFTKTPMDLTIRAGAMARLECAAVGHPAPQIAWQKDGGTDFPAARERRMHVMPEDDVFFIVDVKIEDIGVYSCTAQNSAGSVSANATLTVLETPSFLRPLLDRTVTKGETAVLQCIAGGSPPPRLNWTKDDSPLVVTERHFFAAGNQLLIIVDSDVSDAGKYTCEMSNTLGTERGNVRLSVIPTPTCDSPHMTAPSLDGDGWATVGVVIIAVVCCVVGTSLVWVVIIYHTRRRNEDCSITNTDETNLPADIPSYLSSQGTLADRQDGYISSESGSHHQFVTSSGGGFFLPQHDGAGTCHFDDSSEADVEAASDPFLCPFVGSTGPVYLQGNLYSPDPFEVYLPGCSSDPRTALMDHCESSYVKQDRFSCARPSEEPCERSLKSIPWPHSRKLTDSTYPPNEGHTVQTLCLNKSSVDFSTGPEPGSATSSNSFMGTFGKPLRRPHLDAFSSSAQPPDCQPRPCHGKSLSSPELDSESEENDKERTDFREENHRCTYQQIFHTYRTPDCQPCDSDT

[2] = molecular target: T2, human N'flag-Lrig1 (human) (UniProt Q96JA1); test: as above
T2 sequence: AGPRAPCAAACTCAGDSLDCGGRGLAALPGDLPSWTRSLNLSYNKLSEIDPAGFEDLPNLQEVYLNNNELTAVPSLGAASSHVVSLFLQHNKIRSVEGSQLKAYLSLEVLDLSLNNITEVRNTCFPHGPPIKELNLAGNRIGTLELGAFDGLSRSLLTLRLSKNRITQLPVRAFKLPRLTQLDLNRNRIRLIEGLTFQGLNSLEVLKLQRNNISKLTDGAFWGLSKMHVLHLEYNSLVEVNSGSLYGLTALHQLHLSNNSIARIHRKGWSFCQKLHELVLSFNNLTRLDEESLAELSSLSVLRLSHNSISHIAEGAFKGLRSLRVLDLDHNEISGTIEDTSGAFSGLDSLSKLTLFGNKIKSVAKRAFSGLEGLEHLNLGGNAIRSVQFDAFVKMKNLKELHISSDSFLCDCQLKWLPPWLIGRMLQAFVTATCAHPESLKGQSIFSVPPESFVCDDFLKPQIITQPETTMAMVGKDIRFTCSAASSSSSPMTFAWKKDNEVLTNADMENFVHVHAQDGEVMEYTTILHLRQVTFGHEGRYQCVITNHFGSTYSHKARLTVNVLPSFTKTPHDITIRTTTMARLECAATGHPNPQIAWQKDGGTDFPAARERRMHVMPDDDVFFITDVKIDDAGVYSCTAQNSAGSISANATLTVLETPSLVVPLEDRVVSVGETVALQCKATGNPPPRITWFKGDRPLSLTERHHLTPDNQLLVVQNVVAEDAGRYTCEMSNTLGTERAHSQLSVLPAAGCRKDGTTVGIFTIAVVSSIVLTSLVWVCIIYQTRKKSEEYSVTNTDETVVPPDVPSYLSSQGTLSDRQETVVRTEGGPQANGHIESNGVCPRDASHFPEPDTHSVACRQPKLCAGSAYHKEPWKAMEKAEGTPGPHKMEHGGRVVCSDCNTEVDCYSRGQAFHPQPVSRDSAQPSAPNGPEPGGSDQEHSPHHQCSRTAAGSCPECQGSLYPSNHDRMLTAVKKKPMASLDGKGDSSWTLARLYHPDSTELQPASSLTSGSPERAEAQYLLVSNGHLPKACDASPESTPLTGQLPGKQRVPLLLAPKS

| binding [1] | binding [2] | Substance |
| --- | --- | --- |
| binds | binds | ErbB4 (from UniProt Q15303 26-1308) (receptor) |
| binds |  | EGFR (from UniProt P00533 25-1210) (receptor) |
| binds | binds | ErbB2 (from UniProt P04626 23-1255) (receptor) |
